# Reference: article PMC5147049
# The chains behind the UniProt entries cited, without tags or fusion partners.
# UniProt G3H1G2: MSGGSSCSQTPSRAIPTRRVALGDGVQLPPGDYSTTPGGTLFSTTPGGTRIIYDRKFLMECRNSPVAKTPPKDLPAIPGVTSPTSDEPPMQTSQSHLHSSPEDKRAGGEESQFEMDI
# These are yes or no findings as the source states them, for the method shown. In cells and extracts the contact can be indirect. Some entries that bind do so weakly or less than the wild type.
# Target: eukaryotic translation initiation factor 4E (eIF4E), endogenous in GS-CHOK1 cells (Chinese hamster (endogenous in GS-CHOK1 cells))
# Assay: pull-down; m7GTP-agarose beads (Jena Bioscience) incubated with fresh CHO cell extracts (Null8, CHO42, CHO52, CHO137; different days of batch culture) in 1% Triton X-100, 1 mM EDTA, 50 mM Tris-Cl, 0.1% beta-mercaptoethanol, protease/phosphatase inhibitors, 4°C, 2 h; washed three times with cold PBS; input and bound fractions analysed by SDS-PAGE and western blot
substance,measurement,value
"eukaryotic initiation factor 4E-binding protein 1 (4E-BP1), endogenous in GS-CHOK1 cells (from UniProt G3H1G2 1-117)",binding,binds
